Values quoted from earlier work, collected in PMC5412686 (Biopharmaceutics & Drug Disposition, 2017).
Read-outs that look alike come from different tables or passages of the source.

Assays:
[1] = FaHIF, fasted human intestinal fluid; cited from earlier work
[2] = pH 7.4; cited from earlier work
[3] = Humans, ref Supplemental Table S2, cited from earlier work
[4] = Rats, ref Supplemental Table S2, cited from earlier work

Compound: COC(=O)C1=C(C)NC(C)=C(C(=O)OC)C1c1ccccc1[N+](=O)[O-] [Nifedipine]
- Solubility (Biorelevant media or Buffer, pH 7.4) [1]: 0.041 (FaHIF) mg/ml
- log D [2]: 2.80
- CL ([3]; i.v.): 36 L/h
- F ([3]; oral bioavailability): 0.47
- Vss [3]: 1.67 L/kg
- CL ([4]; i.v.): 8.7 mL/min/kg
- F ([4]; oral bioavailability): 0.46
